# Results as given in PubChem BioAssay AID2685 (National Center for Advancing Translational Sciences (NCATS), 2010).
# Some of the results follow. The main result of the screen is listed elsewhere. These columns were measured beside it and carry no call. Compounds called inactive in the main read-out are mostly missing here. Words in brackets tell the shape of the fitted curve; partial curves, single points and poor fits give uncertain potencies.
# Experiment: qHTS Assay for Lipid Storage Modulators in Drosophila S3 Cells;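 on cell number change: cells counted by Cell Tracker Red CMTPX staining in the red channel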
# Settings: BODIPY lipid droplet fluorescence, 18-24 h; for cell number change: measured here: cell count max response, cells fed with added oleic acid
# Summary of the method: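 Drosophila S3 cells got compounds at several concentrations plus oleic acid (400 uM solution). Laser-scanning cytometry with 488 nm excitation read lipid droplets at 500-530 nm and cells at 575-640 nm. Percent activity was relative to 20 uM Triacsin C.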
# [1] = measured here: cell number channel AC50, cells fed with added oleic acid
# [2] = measured here: lipid fluorescence (Fed channel) AC50, cells fed with added oleic acid
SMILES,cell number change,AC50 [1],AC50 [2]
COc1ccc(/C=N/NC(=O)Nc2cccc3nsnc23)cc1,-34.2%,"0.206 µM [falling, full curve]",–
Cc1cc(/C=C2\SC(=S)N(Cc3ccco3)C2=O)c(C)n1-c1cccnc1,–,–,"20.6 µM [falling, partial curve]"
Cc1ccc(S(=O)(=O)N2CCCCC2)c(C)c1NS(C)(=O)=O,11.7%,–,–
CN(CC(=O)Nc1ccccc1Cl)C(=O)Cn1cnc2ccc(Cl)cc2c1=O,6.45%,–,"0.00411 µM [falling, full curve, poor fit]"
Cc1cc(C(=O)C(C)Cl)c(C)n1Cc1ccco1 (stereo not drawn),-21.6%,–,–
CCN(c1ccccc1)S(=O)(=O)c1ccc(OC)c(NC(=O)Cc2ccc(OC)c(OC)c2)c1,-7.01%,–,"1.84 µM [rising, partial curve]"
COc1cc(/C=N/NC(=O)c2ccc(COc3cc(C)ccc3C(C)C)cc2)cc(OC)c1O,-38.3%,"18.4 µM [falling, partial curve, poor fit]","0.326 µM [falling, full curve]"
O=C(Nc1cccc(-c2nc3ccccc3s2)c1)c1cc(-n2cnnc2)ccc1Cl,-21.9%,–,"3.26 µM [falling, full curve, poor fit]"
CCOc1ccc(-n2c(SCC(=O)Nc3nccs3)nc3c(c2=O)SCC3)cc1,–,"0.206 µM [rising, full curve, poor fit]","0.291 µM [rising, partial curve, poor fit]"
Cc1cc(=O)n2c3ccccc3n(CC(O)CN3CCN(Cc4ccccc4)CC3)c2c1C#N (stereo not drawn),-16.4%,–,–
CC1CC1C(=O)OCC(=O)Nc1ccc2[nH]c(=O)[nH]c2c1 (stereo not drawn),-9.23%,–,–
CCOC(=O)C1=C(O)C(=O)N(c2ccc(S(N)(=O)=O)cc2)C1c1ccc(OC)cc1OC (stereo not drawn),4.63%,–,"0.411 µM [falling, full curve, poor fit]"
O=C(CC1NC(=O)NC1=O)Nc1ccccc1 (stereo not drawn),-47.1%,"0.231 µM [falling, full curve, poor fit]","0.184 µM [falling, full curve]"
Cc1cccc(N2CCN(S(=O)(=O)c3ccc(-c4ccc(=O)[nH]n4)o3)CC2)c1C,31%,"29.1 µM [rising, single point]","18.4 µM [rising, single point]"
Cc1cc(C)c2c(c1)c1nnc(SCCN3CCCCC3)nc1n2C,-4.17%,–,–
OCC(O)C1OC(Nc2ccc(Cl)cc2)C(O)C1O (stereo not drawn),-35.5%,–,–

# Sorted by SMILES length (smallest number first): part of the list above
SMILES,cell number change,AC50 [1],AC50 [2]
O=C(CC1NC(=O)NC1=O)Nc1ccccc1 (stereo not drawn),-47.1%,"0.231 µM [falling, full curve, poor fit]","0.184 µM [falling, full curve]"
Cc1cc(C(=O)C(C)Cl)c(C)n1Cc1ccco1 (stereo not drawn),-21.6%,–,–
COc1ccc(/C=N/NC(=O)Nc2cccc3nsnc23)cc1,-34.2%,"0.206 µM [falling, full curve]",–

# Next compounds

SMILES,cell number change,AC50 [1],AC50 [2]
CCCC1(CCC)NC(=O)N(CC(=O)Nc2ccccc2OC)C1=O,-6.57%,–,"0.00461 µM [falling, full curve, poor fit]"
COCCN(CCOC)C(=O)c1ccc(NS(=O)(=O)c2ccc3[nH]c(=O)[nH]c3c2)cc1,2.31%,–,–
CCCCc1ccc(NC(=S)NCc2ccc(OC)cc2)cc1,10.5%,"6.51 µM [falling, single point]","18.4 µM [falling, single point]"
COc1ccc(CNC(=O)CCCOc2cc(=O)n(C)c3ccccc23)cc1,122%,"16.4 µM [rising, single point]",–
CC(C)C(=O)Nc1cccc(C(=O)Nc2ccc(S(=O)(=O)N3CCOCC3)cc2)c1,–,–,"29.1 µM [falling, single point]"
CSc1ccc(-c2nc(CSCC(=O)NC3CC3)c(C)o2)cc1,22.4%,–,"23.1 µM [rising, single point]"
O=C(c1cnc(Cl)c(Cl)c1)N1CCC(Cc2ccccc2)CC1,80.3%,–,–
O=C(NCc1ccco1)c1ccccc1Nc1ccc(F)cc1,–,–,"6.51 µM [falling, single point]"
O=C(NCc1cccc(Cl)c1)c1cccc(S(=O)(=O)N2CCCC2)c1,0.242%,–,"25.9 µM [falling, single point]"
COc1ccc(S(=O)(=O)N2CCCCCC2)cc1,-7.3%,–,"29.1 µM [falling, single point]"
CCOC(=O)c1sc(NC(=O)CSc2nnnn2-c2ccc(C)c(C)c2)nc1C,-20.6%,–,"7.31 µM [falling, partial curve, poor fit]"
CCOCCn1c(SCc2cccc(C)c2)nc2c1c(=O)[nH]c(=O)n2C,20.8%,–,"16.4 µM [rising, single point]"
Cc1ccc(CN(C)C(=O)COC(=O)CSc2ccc([N+](=O)[O-])cc2)cc1,-25%,"0.00461 µM [rising, full curve, poor fit]",–
Cc1ccc(C(=O)NCCCN2CCOCC2)cc1N1CCCC1=O,0.46%,"2.06 µM [rising, partial curve, poor fit]",–
COc1ccc(NC(=S)N(Cc2cccnc2)Cc2cc3cc(OC)c(OC)cc3[nH]c2=O)cc1,-8.11%,–,"0.058 µM [rising, full curve, poor fit]"
Cc1[nH][nH]c(=O)c1C=NCc1cccs1,-29.5%,"2.06 µM [falling, full curve, poor fit]","0.92 µM [falling, full curve, poor fit]"
